Out of some 300,000 compounds screened, about 3,700 (1.2%) were called active. The inconclusive results got no clear call from the source; some entries with a clear call stand among them for comparison. The call rests on the fitted dose curve; tested in HEK293 cells. Potencies beside an inconclusive call are fits to weak or partial responses and may not hold up.
Assay: qHTS for Inhibitors of binding or entry into cells for Lassa Virus; further: nearly all actives have a fitted effect of over 50% in size
Conditions: Lassa virus pseudotype entry inhibition, cell reporter; activity change, negative = inhibition: at 37.9 µM (top of the series) unless noted
On the % scale 0 is the no-effect control and ±100 the full control effect; potency means the concentration at half of the fitted maximal effect.

Row | SMILES | Potency | activity change, negative = inhibition
1 | COC(=O)c1sc(NC(=O)c2ccc(OC)cc2OC)nc1C | inconclusive: 2.31 µM [inhibitor, full curve, poor fit] | 
2 | COc1ccccc1C(=O)Nc1cc2ccccc2oc1=O |  | inactive: 1.31%
3 | CCc1ccc(-c2nc3c(c(SCc4ccccc4F)n2)Cc2c(CO)cnc(C)c2O3)cc1 |  | inactive: 7.25% [at 46.1 µM]
4 | Cc1ccc(COC(=O)c2nn(-c3ccccc3)nc2N)cc1 | inconclusive: 7.08 µM [inhibitor, partial curve, poor fit] | 
5 | O=C(NCC(c1cccnc1)N1CCN(c2ccc(F)cc2)CC1)OCc1ccccc1 (centres undefined) | inconclusive: 5.62 µM [inhibitor, partial curve] | 
6 | O=C(CSc1nnc2ccc(-c3ccncc3)nn12)Nc1ccc(F)cc1 |  | inactive: -15.1%
7 | Cc1ccc(C(C(=O)NC2CCCC2)N(CCCO)C(=O)Cn2nnc(-c3ccc(C)o3)n2)cc1 (centres undefined) | inconclusive: 28.2 µM [inhibitor, single point] | 
8 | COc1c(C)cc(C(=O)C2CCCN(C(=O)c3cccc(-n4cccn4)c3)C2)cc1C (centres undefined) | inconclusive: 11.2 µM [inhibitor, partial curve, poor fit] | 
9 | CCCn1c(C)cc(C(=O)Cn2nnc3ccccc3c2=O)c1C | inconclusive: 35.5 µM [inhibitor, single point] | 
10 | Nc1nc(CSc2ccccc2)nc(N2CCCCC2)n1 | inconclusive: 0.631 µM [activator, full curve, poor fit] | 
11 | Cc1c(C2=CCN(S(=O)(=O)c3cccc(Cl)c3)CC2)c2ccccc2n1CC(=O)N1CCCC1 |  | inactive: -1.4% [at 46.1 µM]
12 | CCCCC(=O)N1CCN(c2nc3ccc(Cl)cc3s2)CC1 |  | inactive: -7.26% [at 46.1 µM]
13 | COc1ccccc1C(=O)NC(=O)COC(=O)c1cc[n+]([O-])cc1 | inconclusive: 1.26 µM [inhibitor, single point] | 
14 | O=C(c1cc(COc2ccc(F)cc2Cl)on1)N1CCCC(c2ccccc2)C1 (centres undefined) | inconclusive: 25.1 µM [inhibitor, single point] | 
15 | Cc1cc(Cc2cc(C)c(O)c(CO)c2)cc(CO)c1O | inconclusive: 2.82 µM [inhibitor, single point] | 
16 | Oc1cccc2ccc(/C=C/c3cccs3)nc12 | inconclusive: 32.6 µM [inhibitor, single point] | 
17 | COc1ccc(/C(C)=N\Nc2nc(-c3ccccc3)cc(=O)[nH]2)cc1 | inconclusive: 6.31 µM [inhibitor, partial curve, poor fit] | 
18 | Fc1ccc(-c2nn3ncccc3c2-c2ccnc(Nc3ccc4c(c3)OCCO4)n2)cc1 | active: 7.91 µM | 
19 | C/C=C/c1ccccc1OCc1ccc(C(=O)OC)o1 |  | inactive: -1.99%
20 | O=C(NCc1ccccc1)c1nn(-c2ccccc2)nc1CO | inconclusive: 8.91 µM [inhibitor, partial curve, poor fit] | 
21 | Cc1ccc(CNC(=O)Cn2c(=O)n(-c3ccc(Cl)cc3)c(=O)c3c(C)c(C)sc32)cc1 |  | inactive: 15.4% [at 46.1 µM]
22 | CCNC(=O)Cn1cnc2c1c(=O)n(C)c(=O)n2C |  | inactive: -21.2%
23 | Cc1ccc(OCc2cc(C(=O)N3CCN(C)C[C@@H]3c3ccccc3)no2)cc1C | inconclusive: 35.5 µM [inhibitor, single point] | 

In the list so far, these contain four or more nitrogen atoms:
Row | SMILES | Potency | activity change, negative = inhibition
4 | Cc1ccc(COC(=O)c2nn(-c3ccccc3)nc2N)cc1 | inconclusive: 7.08 µM [inhibitor, partial curve, poor fit] | 
5 | O=C(NCC(c1cccnc1)N1CCN(c2ccc(F)cc2)CC1)OCc1ccccc1 (centres undefined) | inconclusive: 5.62 µM [inhibitor, partial curve] | 
6 | O=C(CSc1nnc2ccc(-c3ccncc3)nn12)Nc1ccc(F)cc1 |  | inactive: -15.1%
7 | Cc1ccc(C(C(=O)NC2CCCC2)N(CCCO)C(=O)Cn2nnc(-c3ccc(C)o3)n2)cc1 (centres undefined) | inconclusive: 28.2 µM [inhibitor, single point] | 
9 | CCCn1c(C)cc(C(=O)Cn2nnc3ccccc3c2=O)c1C | inconclusive: 35.5 µM [inhibitor, single point] | 
10 | Nc1nc(CSc2ccccc2)nc(N2CCCCC2)n1 | inconclusive: 0.631 µM [activator, full curve, poor fit] | 
17 | COc1ccc(/C(C)=N\Nc2nc(-c3ccccc3)cc(=O)[nH]2)cc1 | inconclusive: 6.31 µM [inhibitor, partial curve, poor fit] | 
18 | Fc1ccc(-c2nn3ncccc3c2-c2ccnc(Nc3ccc4c(c3)OCCO4)n2)cc1 | active: 7.91 µM | 
20 | O=C(NCc1ccccc1)c1nn(-c2ccccc2)nc1CO | inconclusive: 8.91 µM [inhibitor, partial curve, poor fit] | 
22 | CCNC(=O)Cn1cnc2c1c(=O)n(C)c(=O)n2C |  | inactive: -21.2%

Additional entries:

Row | SMILES | Potency | activity change, negative = inhibition
24 | C[C@@H](NC(=O)c1coc(=O)c(Br)c1)c1ccccc1 | inconclusive: 22.4 µM [inhibitor, partial curve, poor fit] | 
25 | CC(C)(C)c1ccc(C(=O)Nc2ccc(C=C(C#N)C#N)cc2)cc1 | inconclusive: 35.5 µM [inhibitor, single point] | 
26 | NS(=O)(=O)c1ccc(NC(=O)N2c3ccccc3Sc3ccccc32)cc1 | inconclusive: 0.461 µM [inhibitor, full curve] | 
27 | CCCCCCCCCCC/C=C\C(C)(C)/C=C\CCCC(=O)O |  | inactive: 9.22%
28 | Cc1ccc(NC(=O)CSc2ccc(Br)cc2)cc1S(=O)(=O)N1CCOCC1 | inconclusive: 10 µM [inhibitor, partial curve, poor fit] | 
29 | Cc1ccccc1CN1C(=O)c2ccccc2Sc2ccc(C(=O)NC(C)c3ccccc3)cc21 (centres undefined) |  | inactive: -10.9% [at 46.1 µM]
30 | COc1ccc(-c2n[nH]c(C(F)(F)F)c2-c2cc3ccccc3o2)c(O)c1 | inconclusive: 4.61 µM [inhibitor, full curve] | 
31 | COc1ccc(C(=O)NNC(=S)NC(=O)/C=C/c2cccs2)cc1 |  | inactive: -18.1% [at 46.1 µM]
32 | CCCCOC(=O)c1ccc(NC(=O)CSc2nc3c(c(=O)[nH]2)CCCC3)cc1 |  | inactive: -16.1% [at 46.1 µM]
33 | Cc1cc2c(cc1C)N(C(=O)CN1C(=O)c3ccccc3C1=O)C(C)(C)c1ssc(=S)c1-2 | inconclusive: 7.94 µM [inhibitor, full curve, poor fit] | 
34 | Cc1cccn2c(CN3CCSCC3)c(C(=O)N3CCOCC3)nc12 |  | inactive: 17.5% [at 46.1 µM]
35 | S=C(NCCc1ccccc1)NC1CCC(NC(=S)NCCc2ccccc2)CC1 (centres undefined) | inconclusive: 14.1 µM [activator, single point] | 
36 | Cc1c(-c2ccc(Br)cc2)nc2ccccn12 | inconclusive: 0.398 µM [activator, full curve, poor fit] | 
37 | CCOC(=O)C1CN(S(=O)(=O)c2ccc(C)cc2)c2cc(S(=O)(=O)CC)ccc2O1 (centres undefined) | inconclusive: 14.6 µM [inhibitor, partial curve, poor fit] | 
38 | Cc1nn(-c2ccc(F)cc2)c(-n2cccc2)c1C(=O)N1CCN(C(=O)c2ccco2)CC1 | inconclusive: 1.58 µM [inhibitor, partial curve, poor fit] | 
39 | CCOC(=O)c1nn(-c2ccc(C)cc2)cc1O | inconclusive: 35.5 µM [inhibitor, single point] | 
40 | Cc1cc(C)n2nc(C(=O)OCC(=O)N3CCC3)nc2n1 | inconclusive: 5.62 µM [inhibitor, single point] | 
41 | Cc1ccc(S(=O)(=O)Nc2ccc(C(OC(=O)c3ccccc3[N+](=O)[O-])(C(F)(F)F)C(F)(F)F)cc2)cc1 | inconclusive: 8.2 µM [inhibitor, partial curve] | 
42 | COc1ccc(C2CCCCCN2C(=O)C2CCN(S(=O)(=O)c3cccc(C(C)=O)c3)CC2)cc1 (centres undefined) |  | inactive: -28.3%
43 | C=CCOc1ccc(/C=C2\N=C(C)OC2=O)cc1OC | inconclusive: 17.8 µM [activator, single point] | 
44 | C=CCc1ccc(OCc2ccc(C(=O)O)o2)c(OC)c1 | inconclusive: 5.62 µM [inhibitor, full curve] | 
45 | CCOc1ccc(NC(=O)Cn2c(C)cc3ccccc3c2=O)cc1 |  | inactive: -0.497% [at 46.1 µM]
46 | CCOC(=O)c1c(NC(=O)CSc2nnnn2-c2ccc3c(c2)OCO3)sc(C)c1C | inconclusive: 0.0065 µM [inhibitor, full curve, poor fit] | 

An excerpt of the results above, for reference:
Row | SMILES | Potency | activity change, negative = inhibition
36 | Cc1c(-c2ccc(Br)cc2)nc2ccccn12 | inconclusive: 0.398 µM [activator, full curve, poor fit] | 
37 | CCOC(=O)C1CN(S(=O)(=O)c2ccc(C)cc2)c2cc(S(=O)(=O)CC)ccc2O1 (centres undefined) | inconclusive: 14.6 µM [inhibitor, partial curve, poor fit] | 

Carrying on.

Row | SMILES | Potency | activity change, negative = inhibition
47 | CCOc1ccc(OCCSc2nnnn2C2CCCCC2)cc1 |  | inactive: -21.3%
48 | COc1cc(C(=O)NNC(=S)NC(=O)/C=C/c2ccccc2)cc(OC)c1OC | inconclusive: 22.4 µM [inhibitor, partial curve, poor fit] | 
49 | COc1cccc(C(=O)Nc2cccc3ccccc23)c1OC | inconclusive: 35.5 µM [inhibitor, single point] | 
50 | COc1ccc(NC(=O)c2cccn2-c2nnc(N3CCCCC3)s2)cc1Cl | inconclusive: 11.2 µM [inhibitor, single point] | 
51 | Cc1ccc(/C=N/NC(=O)Cc2cccn2C)s1 | inconclusive: 14.1 µM [activator, single point] | 
52 | COc1cc(/C=N/NC(=O)C23CC4CC(CC(C4)C2)C3)cc(Br)c1O |  | inactive: 3.53%
53 | CC1CCc2c(nc3ncnn3c2Nc2ccc(OC(F)(F)F)cc2)C1 (centres undefined) | inconclusive: 11.2 µM [inhibitor, partial curve] | 
54 | CCOC(=O)CNC(=O)c1cccnc1Oc1ccc(Cl)cc1 |  | inconclusive: 4.73% [activator]
55 | CCc1ccc(/C=C2\SC(=S)N(CCC(=O)Nc3cc(C)on3)C2=O)cc1 |  | inactive: -1.57%
56 | O=C(Nc1c(-c2cccs2)nc2ccccn12)c1ccccc1F | inconclusive: 6.31 µM [inhibitor, partial curve, poor fit] | 
57 | O=C(NC1CCCCC1)N1CCN(CCc2ccccc2)CC1 |  | inactive: -30.5% [at 14.3 µM]
58 | Cc1nc2ccccn2c(=O)c1NC(=O)c1ccc(C(F)(F)F)cc1 |  | inactive: 16.9% [at 46.1 µM]
59 | CCn1c(=O)c(=O)[nH]c2c(=O)oc3ccc(S(=O)(=O)Nc4ccc(OC)cc4)cc3c21 | inconclusive: 2.51 µM [inhibitor, full curve, poor fit] | 
60 | Cc1sc2nc(CSC(C)C(=O)Nc3ccc(C#N)cc3)[nH]c(=O)c2c1C (centres undefined) | inconclusive: 1 µM [inhibitor, full curve, poor fit] | 
61 | Cc1occc1C(=O)Nc1ccc(OCc2ccccc2)cc1 |  | inactive: -18.5%
62 | CCn1cc(CN(C)C(=O)CSc2nc(-c3ccco3)cc(C(F)(F)F)n2)c(C)n1 |  | inactive: -24.3%
63 | Cc1sc(NC(=O)Cc2ccc3c(c2)OCO3)nc1-c1ccc2c(c1)CCN2C(=O)c1ccccc1F | inconclusive: 1.26 µM [activator, single point] | 
64 | COc1cc(C(=O)NCC(=O)N/N=C/c2ccco2)cc(OC)c1OC | inconclusive: 11.2 µM [activator, single point] | 
65 | COc1ccccc1CNC(=O)c1ccc2c(c1)nc(C)n2-c1ccccc1OC |  | inactive: 3.82% [at 46.1 µM]
66 | COC(=O)c1cc(C(=O)c2ccc(C(C)(C)C)cc2)c[nH]1 | inconclusive: 3.16 µM [inhibitor, single point] | 
67 | COc1cccc(NC(=S)N2CCN(S(=O)(=O)c3ccccc3)CC2)c1 |  | inactive: -28.4% [at 46.1 µM]
68 | COc1cc(Nc2ncc3c(n2)CCN(Cc2cc(Br)cs2)C3)cc(OC)c1 |  | inactive: -1.24% [at 46.1 µM]
69 | Cc1ccc(CSc2nc3c([nH]c4ccccc43)c(=O)n2C)cc1 | inconclusive: 2.51 µM [inhibitor, partial curve, poor fit] | 
